Results reported in PubChem BioAssay AID652277 (National Center for Advancing Translational Sciences (NCATS), 2013).
The source calls these results inconclusive, neither active nor inactive. Calls come from the whole dose curve; as a rule, active = well fitted curve in the direction sought with a large enough effect; inconclusive = small, poorly fitted or top-dose-only effect, or another doubt; inactive = no such curve, though single readings can be large or run the other way. Potencies beside an inconclusive call are fits to weak or partial responses and may not hold up.

Amino acid sequences for entries named in this document (tags omitted). A change or cut given only in a name is not applied to a line headed by its entry.
UniProt P55212: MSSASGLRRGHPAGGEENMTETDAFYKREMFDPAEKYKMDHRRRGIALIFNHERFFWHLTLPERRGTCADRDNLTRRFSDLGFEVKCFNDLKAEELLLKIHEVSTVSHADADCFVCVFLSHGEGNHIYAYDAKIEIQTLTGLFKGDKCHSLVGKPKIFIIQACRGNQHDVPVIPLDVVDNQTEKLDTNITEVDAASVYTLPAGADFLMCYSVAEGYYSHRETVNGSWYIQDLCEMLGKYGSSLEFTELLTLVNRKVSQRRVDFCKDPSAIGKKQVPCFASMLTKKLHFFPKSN

Biological target: Caspase-6 (Homo sapiens) (UniProt P55212)
Test: qHTS for Inhibitors of Ubiquitin-specific Protease USP2a Using CHOP2 as the Reporter: Caspase 6 Assay
Details: Caspase 6 enzyme, Caspase-Glo 6 luminescence
From the text: Homeostasis of cellular proteins is maintained through a combination of synthesis and degradation. The pathway that accounts for the majority of protein degradation is the ubiquitin-proteasomal pathway. Ubiquitin (Ub) is highly conserved in all cells and the generation of a multi-Ub chain typically targets proteins for degradation by the proteaosome. However, ubiquitination is highly reversible and dynamic. Deubiquitination, the reverse process, is catalyzed through the action of enzymes referred to as isopeptidases for deubiquitinating enzymes (DUBs). This group of enzymes is collectively responsible for maintaining adequate pools of free ubiquitin and regulating the ubiquitination status of cellular proteins. The class of DUBs referred to as the ubiquitin-specific proteases (USP) family functions endoproteolytically to cleave Ub chains from a wide range of protein substrates. […] Upon cleavage of the substrate by caspase 6, the product can be acted upon by luciferase to lead to luminescence that is proportional to the caspase 6 activity. A compound that inhibits caspase 6 would result in a decrease in luminescence. […]
Two and a half uL of 0.5 U/mL caspase 6 in buffer was dispensed in a 1536 well plate. […] After 30 minutes at room temperature, 25 uL of Caspase 6 Glo detection reagent was added and luminescence signal was read using the PerkinElmer ViewLux plate reader with a 1 second exposure. […]

Structure (SMILES)	Potency
Cc1ccc(-c2cc(C(=O)Nc3ccc(S(N)(=O)=O)cc3)c3cccc(C)c3n2)cc1C	inconclusive: 3.72 µM [inhibitor, full curve, poor fit]
Cc1ccc(-c2cc(C(=O)Nc3ncco3)c3ccccc3n2)cc1C	inconclusive: 16.6 µM [inhibitor, partial curve]
